Some results were stated once for a whole list of compounds, not compound by compound.
Target: T1, S. Typhimurium PhoPQ (Salmonella typhimurium, UniProt P0DM80)
T1 construct: expressed in transfected cells; host or cells: E. coli BW30007 (lacks E. coli phoPQ) with the cassette integrated in the genome = strain KB1
Assay: SLAY-TCS sort-seq screen of KB1 human AMP library
Type: cell-based
Settings: 500 μM IPTG
Source text: PhoQ senses diverse human AMPs: To characterize the response of PhoQ to most human AMPs, 133 human AMPs in the Antimicrobial Peptide Database (APD3) were first identified). From this set, 16 (12%) were excluded exceeding 104 amino acids in length due to size restrictions of commercial oligonucleotide synthesis. The remaining set of 117 AMPs vary in charge, length, hydrophobicity, and secondary structure, and comprise 11 clusters of high sequence similarity. […]
Next, sort-seq was utilized to characterize the effect of each peptide on PhoPQ activity. […] Then, FACS was used to sort these bacteria into eight logarithmically-spaced mNG fluorescence bins (FIG. 26B). The bins were designed to span the fluorescence distributions of negative (no peptide) and positive (C18G) PhoQ activity control strains measured on the same day. […] Next, Illumina NGS was used to sequence the peptide-encoding DNA regions from bacteria in each bin and estimated the mean mNG fluorescence level of each strain using the relative abundances of peptide-encoding sequences across fluorescence bins. These estimated fluorescence values were divided by the estimated mean fluorescence of the no-peptide control to calculate the fold activation of PhoPQ in response to each peptide in the library.

Substance: hBD3: human β-defensin 3 (GIINTLQKYYCRVRGGRCAVLSCLPKEEQIGKCSTRGRKCCRRKK; Beta-defensin 103; UniProt P81534 23-67, looked up)
- sort-seq fold activation of PhoPQ relative to no-peptide control: at least 2 fold

From patent US20240189458A1, “METHODS FOR IN VIVO DELIVERY OF MICROBES TO HUMAN MICROENVIRONMENTS” (priority 2021, published 2024)
